Measurements reported in PubChem BioAssay AID1259405 (NCATS, 2018)
Shown is an unselected part of about 50,000 reagents tested. About 4,000 of all reagents (8%) count as active. 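Mouse siRNA library applied to hamster cells; one well for each siRNA.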 Reagents against one gene are numbered here.

Screen: 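Mouse-designed siRNAs used to find CHO productivity engineering targets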 (primary screen)
Cell system: Chinese hamster CHO-K1 ovary cells with stable secreted eGFP expression
Knock-down reagent: single siRNA against mouse genes, 0.8 pmol siRNA per well (2 µl of 400 nM stock)
Duration: 3 days
Measured: 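Per-well intracellular GFP measured by laser scanning cytometry, plus viability from ATP luminescence, each relative to plate median of non-targeting control wells, in %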
Scale: GFP, % of control: higher = more GFP per well, higher productivity; viability (ATP), % of control: higher = more viable cells (more ATP)
Call rule: 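a knock-down is called active if GFP reaches 120% or more of non-targeting control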

Depletion of Zfp24 #1 resulted in: GFP, % of control 65.3; viability (ATP), % of control 74.1; inactive.
Depletion of Zfp24 #2 resulted in: GFP, % of control 65.8; viability (ATP), % of control 80.3; inactive.
Zfp24 #3 scored GFP, % of control 131; viability (ATP), % of control 109; active.
After knock-down of Tcf21 #1 the results were GFP, % of control 79.5; viability (ATP), % of control 97.2; inactive.
For Tcf21 #2, the values are GFP, % of control 78.9; viability (ATP), % of control 80.2; inactive.
Tcf21 #3 showed GFP, % of control 104; viability (ATP), % of control 89.7; inactive.
Plcb2 #1 scored GFP, % of control 70; viability (ATP), % of control 63.8; inactive.
Silencing of Plcb2 #2 gave: GFP, % of control 132; viability (ATP), % of control 99.4; active.
Plcb2 #3 showed GFP, % of control 101; viability (ATP), % of control 62.2; inactive.
Depletion of Zfp874a #1 resulted in: GFP, % of control 83.8; viability (ATP), % of control 63.8; inactive.
Against Zfp874a #2 the deposit lists GFP, % of control 60; viability (ATP), % of control 52.4; inactive.
For Zfp874a #3, the entry reads GFP, % of control 79.6; viability (ATP), % of control 93.6; inactive.
Silencing of Aadacl4fm1 #1 gave: GFP, % of control 67.3; viability (ATP), % of control 27; inactive.
After knock-down of Aadacl4fm1 #2 the results were GFP, % of control 72.2; viability (ATP), % of control 94.7; inactive.
After knock-down of Aadacl4fm1 #3 the results were GFP, % of control 49; viability (ATP), % of control 48.2; inactive.
Depletion of Amigo2 #1 resulted in: GFP, % of control 90.4; viability (ATP), % of control 87.9; inactive.
Against Amigo2 #2, the entry reads GFP, % of control 130; viability (ATP), % of control 77.7; active.
Amigo2 #3 scored GFP, % of control 127; viability (ATP), % of control 83.1; active.
With knock-down of Ptbp1 #1, the record shows GFP, % of control 113; viability (ATP), % of control 103; inactive.
For Ptbp1 #2, the values are GFP, % of control 0.00713; viability (ATP), % of control 89.3; inactive.
Ggta1 #1 scored GFP, % of control 71.2; viability (ATP), % of control 52.3; inactive.
Ggta1 #2 showed GFP, % of control 75.3; viability (ATP), % of control 82; inactive.
For Ggta1 #3, the entry reads GFP, % of control 50.7; viability (ATP), % of control 63.7; inactive.
Silencing of Depdc1a #1 gave: GFP, % of control 79.7; viability (ATP), % of control 80.7; inactive.
After knock-down of Depdc1a #2, the screen gave GFP, % of control 74.1; viability (ATP), % of control 82.7; inactive.
After knock-down of Depdc1a #3, the screen gave GFP, % of control 51; viability (ATP), % of control 54.9; inactive.
After knock-down of Tbcel #1, the record shows GFP, % of control 137; viability (ATP), % of control 95.1; active.
Knock-down of Tbcel #2 gave: GFP, % of control 116; viability (ATP), % of control 94.1; inactive.
With knock-down of Tbcel #3 the results were GFP, % of control 53.7; viability (ATP), % of control 65.3; inactive.

Reformatted: results already given
gene | reagent no. | GFP, % of control | viability (ATP), % of control | call
Tbcel | 1 | 137 | 95.1 | active
Tbcel | 2 | 116 | 94.1 | inactive
